According to paper PMC7819943, “Rice protein-binding microarrays: a tool to detect cis-acting elements near promoter regions in rice”:
The other results are listed elsewhere or left out.

target: T1, OsSMF1 (Oryza sativa, UniProt Q6ZLB0 1-436); assay: protein-binding microarray (RPBM); PBS, 2% BSA, 51.3 ng/ul salmon testes DNA, 50 uM zinc acetate, 200 nM TF, 25 C, 1 h; high values mean tight binding; details: protein: recombinant; tags: N-terminal polyhistidine and DsRed monomer fusion (pET32a); chain copies: 2; label: CyDye5-dUTP incorporated in the synthesized complementary strand; 3' TTTTT single-stranded linker to array surface; dsDNA, one strand shown
T1 sequence: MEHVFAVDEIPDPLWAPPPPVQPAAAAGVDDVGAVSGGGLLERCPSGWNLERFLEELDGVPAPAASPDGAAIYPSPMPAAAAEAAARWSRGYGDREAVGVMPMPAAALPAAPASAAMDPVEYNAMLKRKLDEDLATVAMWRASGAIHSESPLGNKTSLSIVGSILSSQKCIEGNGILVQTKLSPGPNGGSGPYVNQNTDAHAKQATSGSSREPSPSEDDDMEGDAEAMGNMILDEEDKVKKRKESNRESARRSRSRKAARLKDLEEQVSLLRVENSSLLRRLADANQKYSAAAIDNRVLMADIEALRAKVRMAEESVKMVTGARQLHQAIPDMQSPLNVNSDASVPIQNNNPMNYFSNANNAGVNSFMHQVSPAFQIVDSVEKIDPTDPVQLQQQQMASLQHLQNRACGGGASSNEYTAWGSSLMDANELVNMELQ
How it was run: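 Binding signal here means per-feature fluorescence intensity in arbitrary units. The values were read on an Axon 4000B scanner after a custom Agilent array, double-stranded by primer extension with Cy5-dUTP, was incubated with 200 nM protein at 25 °C for 1 h in PBS with 2% BSA, salmon testes DNA and 50 µM zinc acetate, then washed. The proteins were transcription factors with an N-terminal polyhistidine tag and DsRed, expressed in E. coli BL21-CodonPlus and purified on Ni–NTA.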

Sequence	binding signal
GAGGGACCCACCGTCCAGCAGGAGACTGCCATGTGGGCCCCGGAGTCACCTAGTGCAG	3740 fluorescence intensity (a.u.)
TCCCATGGCGATCTCCGAGTCCCTCGCCCCGTCCATCGACCGGAGTCACCTAGTGCAG	17400 fluorescence intensity (a.u.)
GAGGAGGGAATTACTACCACCGGGTGACTCGTGGTTTCGTCGGAGTCACCTAGTGCAG	4450 fluorescence intensity (a.u.)
TCCCACAATGATTCACCCCGATCCGGTTCGCCACGTCACCCGGAGTCACCTAGTGCAG	31600 fluorescence intensity (a.u.)
ACGGTCACGAAGCCGCCACGTCGCGCTTGTCACCACGCTGCGGAGTCACCTAGTGCAG	6560 fluorescence intensity (a.u.)
CCAAACATTTGATGACATCAAGTGCAAGTGCAACGGAGACCGGAGTCACCTAGTGCAG	3830 fluorescence intensity (a.u.)
ATCGTCAAAATGTGTGAAAACACAATCGACCACGTCAGGTCGGAGTCACCTAGTGCAG	11500 fluorescence intensity (a.u.)
GCGGTGACTTGGCTGTCGTCCCACTCAGCCTACCGCGTGTCGGAGTCACCTAGTGCAG	5270 fluorescence intensity (a.u.)
GGAGGCCACCCCTGTGCGTCTCGTCCCATCCAACTCATCTCGGAGTCACCTAGTGCAG	3670 fluorescence intensity (a.u.)
TCCGCGGTTATAGCTGCACAGTGTGGTGGCATTTGAGCTCCGGAGTCACCTAGTGCAG	3990 fluorescence intensity (a.u.)
CATATATATACACTTTGTATATGTATATAAAGTATATACACGGAGTCACCTAGTGCAG	5480 fluorescence intensity (a.u.)
ATGCCACATAAACCCTACGTCAATGCCACGTGGGACAAAGCGGAGTCACCTAGTGCAG	22600 fluorescence intensity (a.u.)
AAGTGCATTGGTGCTGGTGTGCAGTGCCAAAACAAATACACGGAGTCACCTAGTGCAG	15300 fluorescence intensity (a.u.)
ATAGTGATGGTCAGATGGACACGTGGAAATTGCTTACATTCGGAGTCACCTAGTGCAG	10900 fluorescence intensity (a.u.)
GGCAGTAGTCATATGAATGCCTTCCCACGTATACTTCCATCGGAGTCACCTAGTGCAG	5410 fluorescence intensity (a.u.)
TCCCTACGACACGCTCCTATTAGGTGCCGTTGTGCGGCGGCGGAGTCACCTAGTGCAG	3800 fluorescence intensity (a.u.)
CAGCGGCGGGTGGCCGCCGGGCTGCCATTGTCCGGGAGGCCGGAGTCACCTAGTGCAG	4000 fluorescence intensity (a.u.)
GGTGTCCATAAATCGTCACGCGCGCGAAACCATCCCGTCCCGGAGTCACCTAGTGCAG	23800 fluorescence intensity (a.u.)
GCGACCAGCTCGAACGGATGCGAGGCCACGCCACGGGTCCCGGAGTCACCTAGTGCAG	4220 fluorescence intensity (a.u.)
TACTTCTGAAATCTCACGTGGCATTGGATTGACGTGTCATCGGAGTCACCTAGTGCAG	26800 fluorescence intensity (a.u.)
CCAGCGCGCCTGTAGGCGGAGGAGGAGGCAGCCGCGTTGGCGGAGTCACCTAGTGCAG	3870 fluorescence intensity (a.u.)

Sequence	binding signal
CTGTTTGGGAAAATAACGGCGCCCATTTGTCCGAAGAGCTCGGAGTCACCTAGTGCAG	25300 fluorescence intensity (a.u.)
TTCACAGCAAAGACTGCTTCTAAACCCCTTCCTGTTGGGGCGGAGTCACCTAGTGCAG	3630 fluorescence intensity (a.u.)
GAAGTGACCCGCACCCTTCTTTGCGACGAACCTGTCACTGCGGAGTCACCTAGTGCAG	3260 fluorescence intensity (a.u.)
AGCCCGCCTGTTGTGGGGCCCACATGTCTGGTACACTGTGCGGAGTCACCTAGTGCAG	3860 fluorescence intensity (a.u.)
CGAGGAATTGTACTCAGGTCATTCCGGTTTCCGTGGCTAACGGAGTCACCTAGTGCAG	3190 fluorescence intensity (a.u.)
TTGCCCGTTGCCGCCTTCATCGCTGACGCCTGCCACCGAGCGGAGTCACCTAGTGCAG	4730 fluorescence intensity (a.u.)
GAAGATGGTGATGAGGTGGCACGTGACTTGTCAAAGGGCTCGGAGTCACCTAGTGCAG	11600 fluorescence intensity (a.u.)
CCTCTTCCTCCGCGGCGGCGCCGCCGCCGCCGAGTTCTCCCGGAGTCACCTAGTGCAG	3510 fluorescence intensity (a.u.)
CGAATCTTGAAGCAAATCTGACGGTTCGTGCCTCCTGAGTCGGAGTCACCTAGTGCAG	3500 fluorescence intensity (a.u.)
AACGGCTCAATAACAGCATAGATGACGTGAGTGGAAAATCCGGAGTCACCTAGTGCAG	3180 fluorescence intensity (a.u.)
AGCTCCTATGTCAGCTCCCGCCGCCGCCAGCCGCCACCACCGGAGTCACCTAGTGCAG	3390 fluorescence intensity (a.u.)
GTTGTACATGAGTTGTACAACTGGGTCATATGTATCATCTCGGAGTCACCTAGTGCAG	3270 fluorescence intensity (a.u.)
ATTGTTATTGACCTAGCCACGCACGCGATATAATGTTTCTCGGAGTCACCTAGTGCAG	5290 fluorescence intensity (a.u.)
AATCCGCTCAGTTTGTACTACGTATTATTATTCATTCTTCCGGAGTCACCTAGTGCAG	3500 fluorescence intensity (a.u.)
CCTCGTTCCCTTTCGGCCACGTCACCATCTCCCCTTCCGACGGAGTCACCTAGTGCAG	13100 fluorescence intensity (a.u.)
AGAAAGTATCTAAACATCCTTGATACTAGGTACGTATCTCCGGAGTCACCTAGTGCAG	34800 fluorescence intensity (a.u.)
ATGTGCGGGGAGTTCGCAGGATGACGACAGATGTATTATGCGGAGTCACCTAGTGCAG	4640 fluorescence intensity (a.u.)
GCCCAGTCGCCTGGTACCTTGCGCCCTTGCCTGCTCTGCCCGGAGTCACCTAGTGCAG	36700 fluorescence intensity (a.u.)
CCGTGCTTAACTCATGTTAGAATGCAATGTGCTACATCCACGGAGTCACCTAGTGCAG	3590 fluorescence intensity (a.u.)
TCAAAGCTAGGCACCACGCGTCAACGCATCATCTCCTTCACGGAGTCACCTAGTGCAG	4860 fluorescence intensity (a.u.)
TGAATGCCACCTAGATGCCACGTAAGCTAAAACTGGACTCCGGAGTCACCTAGTGCAG	13200 fluorescence intensity (a.u.)

Quoted from the listing:
binding signal, AGAAAGTATCTAAACATCCTTGATACTAGGTACGTATCTCCGGAGTCACCTAGTGCAG is entered as 34800 fluorescence intensity (a.u.)
binding signal, AGCTCCTATGTCAGCTCCCGCCGCCGCCAGCCGCCACCACCGGAGTCACCTAGTGCAG is entered as 3390 fluorescence intensity (a.u.)
binding signal, CTGTTTGGGAAAATAACGGCGCCCATTTGTCCGAAGAGCTCGGAGTCACCTAGTGCAG is entered as 25300 fluorescence intensity (a.u.)
binding signal, TTCACAGCAAAGACTGCTTCTAAACCCCTTCCTGTTGGGGCGGAGTCACCTAGTGCAG is entered as 3630 fluorescence intensity (a.u.)
